PubChem BioAssay AID1259308 | NCATS – 2017
Purpose: 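Knock-downs that increase output of a recombinant reporter protein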 (primary screen). Cell system: human HEK293 embryonic kidney cells stably expressing firefly luciferase (HEK-CMV-Luc2-Hygro). Reagent: single siRNA against human genes, 0.8 pmol siRNA per well. Time to read-out: 72 h. Measurement: 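Luciferase light (ONE-Glo) measured on one replicate plate set and viability (CellTiter-Glo) on the other, scaled to a negative control siRNA, with robust z-scores and luciferase per cell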. Scale: total luciferase, z-score: higher = more reporter protein produced. Rule for the call: 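An siRNA counts as active if its total luciferase robust z-score exceeds 3; genes with two or more such siRNAs out of three were retested with fresh siRNAs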. Calls: active = raised luciferase; inactive = no rise.
The whole screen tested about 59,000 reagents; shown is an unselected part. In the full data, about 1,510 (2.6%) are marked active. 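Calls use total luciferase alone and ignore viability, so some active siRNAs may act by altering cell number.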 Entries without a mark were called inactive. Further read-outs or replicates are left out here.

KRTAP11-1 [SID160763978] — total luciferase, z-score = -1.14
KRTAP11-1 [SID160763980] — total luciferase, z-score = -0.251
KRTAP11-1 [SID160763981] — total luciferase, z-score = -1
CCDC154 [SID160769681] — total luciferase, z-score = 0.135
CCDC154 [SID160769682] — total luciferase, z-score = -0.607
CCDC154 [SID160769683] — total luciferase, z-score = 1.69
A2M [SID160776626] — total luciferase, z-score = -0.739
A2M [SID160776637] — total luciferase, z-score = -0.429
A2M [SID160776648] — total luciferase, z-score = 1.36
WASHC2A [SID160733622] — total luciferase, z-score = 0.392
WASHC2A [SID160744249] — total luciferase, z-score = -0.539
WASHC2A [SID160744250] — total luciferase, z-score = 0.422
PRR21 [SID160733844] — total luciferase, z-score = -1.18
PRR21 [SID160733845] — total luciferase, z-score = 0.16
PRR21 [SID160769045] — total luciferase, z-score = 2.55
GAA [SID160768213] — total luciferase, z-score = 0.0598
GAA [SID160768216] — total luciferase, z-score = 0.56
GAA [SID160768225] — total luciferase, z-score = -1.98
KCNJ2-AS1 [SID160767001] — total luciferase, z-score = 0.887
KCNJ2-AS1 [SID160767002] — total luciferase, z-score = -0.0622
KCNJ2-AS1 [SID160767003] — total luciferase, z-score = 0.594
PDCL2 [SID160757211] — total luciferase, z-score = -0.781
PDCL2 [SID160757212] — total luciferase, z-score = 0.696
PDCL2 [SID160757213] — total luciferase, z-score = 1.33
BRF2 [SID160743455] — total luciferase, z-score = 0.54
BRF2 [SID160743456] — total luciferase, z-score = 1.73
BRF2 [SID160743457] — total luciferase, z-score = 0.0377

Entries above whose target name begins with W or w:
WASHC2A [SID160733622] — total luciferase, z-score = 0.392
WASHC2A [SID160744249] — total luciferase, z-score = -0.539
WASHC2A [SID160744250] — total luciferase, z-score = 0.422

More entries follow:
UTP25 [SID160738294] — total luciferase, z-score = -1.24
UTP25 [SID160738295] — total luciferase, z-score = 1.11
UTP25 [SID160738296] — total luciferase, z-score = -1.49
ZC3H18-DT [SID160725331] — total luciferase, z-score = 0.166
ZC3H18-DT [SID160733313] — total luciferase, z-score = -1.36
ZC3H18-DT [SID160766984] — total luciferase, z-score = -0.113
ARF3 [SID160719537] — total luciferase, z-score = 0.0593
ARF3 [SID160719548] — total luciferase, z-score = -0.51
ARF3 [SID160719558] — total luciferase, z-score = 0.58
NQO2 [SID160731297] — total luciferase, z-score = -1.09
NQO2 [SID160778111] — total luciferase, z-score = 0.226
NQO2 [SID160778112] — total luciferase, z-score = 0.807
XPNPEP1 [SID160718900] — total luciferase, z-score = 0.331
XPNPEP1 [SID160718901] — total luciferase, z-score = -0.54
XPNPEP1 [SID160718902] — total luciferase, z-score = 1.74
